# Test results: US9441263B2, “Ribosomal targets for antibiotic drug discovery” (Cornell University, priority 2011, dated 2016)
# Entries after “also recorded” stand apart in the source; their conditions may differ. For at least one compound, name, drawing or mass did not settle the structure.
# Tested on: Cy3-S13 / Cy5-L1 (T202C) ribosome complexes
# Experiment: Single-molecule L1-S13 FRET assay (ribosome conformational states)
# Type: biochemical, E. coli
# Conditions: deacylated tRNA^fMet in the P site, no A-site tRNA; EF-G with GDPNP
# Method: Generation of Site-Specifically Labeled 30S Subunits and 50S Subunits.
# Ribosomal protein S13 was PCR-cloned from E. coli strain K12 genomic DNA into the pPROEX HTb vector with a TEV-cleavable His6-tag and a 12-residue peptide encoding the S6 epitope for the Sfp phosphopantetheinyl transferase reaction (Yin 2006), fused at the N terminus. Following transformation of this plasmid into an E. coli ΔS13 knockout strain (Cukras 2005), cells were cultured and ribosomes were harvested as previously described (Wang 2011). Pure 30S subunits were isolated via sucrose gradient centrifugation in a low magnesium buffer (20 mM HEPES pH 7.5, 50 mM KCl, 10 mM NH4Cl, 0.5 mM EDTA, 6 mM BME, 1 mM MgCl2). 30S subunits containing Sfp-tagged S13 were isolated from this population by cobalt affinity chromatography (Clontech). […]
# All single-molecule FRET experiments were performed at room temperature in Tris-Polymix with 5 mM Mg^2+ buffer as previously described (Wang 2011), where oxygen scavenging and triplet-state quenching systems were employed (Dave 2009). […] The smFRET data were acquired by directly exciting the Cy3 fluorophore at 532 nm (LaserQuantum) while Cy3 and Cy5 intensities were simultaneously recorded in Metamorph (Molecular Devices) with 40 ms integration time. The data were analyzed in MATLAB (MathWorks) and plotted in Origin (OriginLab) as previously described (Munro 2007).
compound,measurement,value
NC[C@H]1O[C@H](O[C@H]2[C@H](O)[C@@H](O[C@H]3O[C@H](CO)[C@@H](O)[C@H](N)[C@H]3O)[C@H](N)C[C@@H]2N)[C@H](O)[C@@H](O)[C@@H]1O [kanamycin],FRET state stabilized (L1-S13),"stabilized the low-FRET state; also recorded: low-FRET, unrotated state"
